According to the supplement of paper PMC7661543:
Differences between knockout arms are mostly noise.

Key:
Assay in all cases: relative cell number vs DMSO control (72 h) (% of DMSO); higher = less growth inhibition (more cells)
[1] = test system: ZR-75-1
Description: (§1)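 QMAP-Seq: a pool of 5 breast cancer cell lines (ZR-75-1, SKBR3, HCC-38, MDA-MB-231, BT-20), each carrying 12 doxycycline-inducible Cas9 sgRNA perturbations (11 knockouts plus non-targeting sgNT), was treated with compounds for 72 h at four 10-fold doses (10 nM-10 uM or 1 nM-1 uM range). Barcodes were amplified and sequenced, and cell number was interpolated from 293T spike-in standard curves. The result is expressed as % of the median of DMSO wells. Two biological replicates.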

[2] = test system: MDA-MB-231
Description: as §1

[3] = test system: SKBR3
Description: as §1

CN(C)C/C=C/C(=O)Nc1cc2c(Nc3ccc(F)c(Cl)c3)ncnc2cc1O[C@H]1CCOC1 [Afatinib]
relative cell number
Conditions | [1] | [2] | [3]
sgRNA knockout: sgATF3, 10 nM | 111 | 112 | 84
sgRNA knockout: sgATF3, 100 nM | 69.6 | 93.1 | 41.4
sgRNA knockout: sgATF3, 1000 nM | 77.3 | 94.5 | 23.4
sgRNA knockout: sgATF3, 10000 nM | 14.6 | 11.1 | 13
sgRNA knockout: sgATF4, 10 nM | 126 | 114 | 81.6
sgRNA knockout: sgATF4, 100 nM | 82.4 | 109 | 37.8
sgRNA knockout: sgATF4, 1000 nM | 106 | 80.14 | 28.2
sgRNA knockout: sgATF4, 10000 nM | 12.5 | 14.6 | 12.8
sgRNA knockout: sgATF6, 10 nM | 96.3 | 106.7 | 85.3
sgRNA knockout: sgATF6, 100 nM | 64.87 | 80.09 | 29.4
sgRNA knockout: sgATF6, 1000 nM | 69.7 | 78.4 | 29.7
sgRNA knockout: sgATF6, 10000 nM | 15.3 | 9.87 | 10.4
sgRNA knockout: sgATG7, 10 nM | 103 | 107 | 89
sgRNA knockout: sgATG7, 100 nM | 105 | 76.1 | 40.3
sgRNA knockout: sgATG7, 1000 nM | 57.5 | 67.4 | 20.6
sgRNA knockout: sgATG7, 10000 nM | 12.4 | 10.7 | 13.4
sgRNA knockout: sgERN1, 10 nM | 104 | 112 | 72.6
sgRNA knockout: sgERN1, 100 nM | 81.6 | 74.5 | 37.6
sgRNA knockout: sgERN1, 1000 nM | 60.5 | 77.7 | 23.1
sgRNA knockout: sgERN1, 10000 nM | 9.52 | 11.9 | 13.1
sgRNA knockout: sgHSF1, 10 nM | – | 102 | 84.4
sgRNA knockout: sgHSF1, 100 nM | – | 75.9 | 35.6
sgRNA knockout: sgHSF1, 1000 nM | – | 66.5 | 22.7
sgRNA knockout: sgHSF1, 10000 nM | – | 7.97 | 11.9
sgRNA knockout: sgHSF2, 10 nM | 104 | 108 | 74.9
sgRNA knockout: sgHSF2, 100 nM | 96.9 | 107 | 31.9
sgRNA knockout: sgHSF2, 1000 nM | 66.9 | 73.2 | 28.5
sgRNA knockout: sgHSF2, 10000 nM | 10.2 | 11.3 | 11
sgRNA knockout: sgKEAP1, 10 nM | – | 128 | 88.2
sgRNA knockout: sgKEAP1, 100 nM | – | 77.2 | 29.4
sgRNA knockout: sgKEAP1, 1000 nM | – | 59.2 | 27.8
sgRNA knockout: sgKEAP1, 10000 nM | – | 11.1 | 13.7
sgRNA knockout: sgNFE2L2, 10 nM | 103 | 94.3 | 88.7
sgRNA knockout: sgNFE2L2, 100 nM | 93.7 | 78.6 | 35.9
sgRNA knockout: sgNFE2L2, 1000 nM | 79.1 | 72.1 | 23.9
sgRNA knockout: sgNFE2L2, 10000 nM | 13 | 6.98 | 10.4
sgRNA knockout: sgSLC35F2, 10 nM | 142 | 94.8 | 82.8
sgRNA knockout: sgSLC35F2, 100 nM | 74.5 | 68.6 | 32.3
sgRNA knockout: sgSLC35F2, 1000 nM | 62.5 | 67.7 | 29.2
sgRNA knockout: sgSLC35F2, 10000 nM | 20.6 | 12.1 | 8.28
sgRNA knockout: sgXBP1, 10 nM | 95.5 | 93.2 | 104
sgRNA knockout: sgXBP1, 100 nM | 83.8 | 78.8 | 34.1
sgRNA knockout: sgXBP1, 1000 nM | 65.9 | 80.9 | 23.5
sgRNA knockout: sgXBP1, 10000 nM | 10.6 | 13.3 | 12.6

O=C(c1ccc(/C=C/c2n[nH]c3ccccc23)cc1)N1CCNCC1 [KW2449]
relative cell number
Conditions | [1] | [2] | [3]
sgRNA knockout: sgATF3, 10 nM | 85 | 105 | 74.1
sgRNA knockout: sgATF3, 100 nM | 100 | 86.9 | 97.1
sgRNA knockout: sgATF3, 1000 nM | 53.8 | 79.1 | 109
sgRNA knockout: sgATF3, 10000 nM | 51.4 | 50.2 | 72.6
sgRNA knockout: sgATF4, 10 nM | 116 | 94.7 | 84.8
sgRNA knockout: sgATF4, 100 nM | 70.5 | 85.8 | 70.3
sgRNA knockout: sgATF4, 1000 nM | 56.4 | 61.2 | 92.4
sgRNA knockout: sgATF4, 10000 nM | 45.9 | 46.4 | 76.4
sgRNA knockout: sgATF6, 10 nM | 98.1 | 87.8 | 89.9
sgRNA knockout: sgATF6, 100 nM | 86.1 | 102 | 75.8
sgRNA knockout: sgATF6, 1000 nM | 74.5 | 66.3 | 99.2
sgRNA knockout: sgATF6, 10000 nM | 54.4 | 42.8 | 65.1
sgRNA knockout: sgATG7, 10 nM | 95.5 | 84.7 | 87.2
sgRNA knockout: sgATG7, 100 nM | 86.2 | 86.8 | 76.7
sgRNA knockout: sgATG7, 1000 nM | 64.8 | 77.5 | 95.6
sgRNA knockout: sgATG7, 10000 nM | 40.9 | 38.6 | 69.6
sgRNA knockout: sgERN1, 10 nM | 95.2 | 106.5 | 83.1
sgRNA knockout: sgERN1, 100 nM | 87.4 | 115 | 91
sgRNA knockout: sgERN1, 1000 nM | 53 | 75.7 | 118
sgRNA knockout: sgERN1, 10000 nM | 54.5 | 29.1 | 81.096
sgRNA knockout: sgHSF1, 10 nM | – | 72.3 | 87.1
sgRNA knockout: sgHSF1, 100 nM | – | 96.3 | 70.3
sgRNA knockout: sgHSF1, 1000 nM | – | 79.5 | 101
sgRNA knockout: sgHSF1, 10000 nM | – | 36 | 62.1
sgRNA knockout: sgHSF2, 10 nM | 85.8 | 78.9 | 84.7
sgRNA knockout: sgHSF2, 100 nM | 105 | 111 | 83.3
sgRNA knockout: sgHSF2, 1000 nM | 47.8 | 95.5 | 106
sgRNA knockout: sgHSF2, 10000 nM | 37.4 | 32.6 | 69.3
sgRNA knockout: sgKEAP1, 10 nM | – | 95.4 | 71.7
sgRNA knockout: sgKEAP1, 100 nM | – | 89 | 80.8
sgRNA knockout: sgKEAP1, 1000 nM | – | 91.6 | 93.9
sgRNA knockout: sgKEAP1, 10000 nM | – | 44.4 | 76.4
sgRNA knockout: sgNFE2L2, 10 nM | 113 | 110 | 83.08
sgRNA knockout: sgNFE2L2, 100 nM | 80.7 | 85.65 | 85.8
sgRNA knockout: sgNFE2L2, 1000 nM | 57.3 | 95.3 | 111
sgRNA knockout: sgNFE2L2, 10000 nM | 51.2 | 32.3 | 78.33
sgRNA knockout: sgSLC35F2, 10 nM | 63.9 | 116 | 80.6
sgRNA knockout: sgSLC35F2, 100 nM | 45 | 103 | 92.8
sgRNA knockout: sgSLC35F2, 1000 nM | 53.7 | 73.3 | 86.8
sgRNA knockout: sgSLC35F2, 10000 nM | 43.8 | 44.3 | 77.6
sgRNA knockout: sgXBP1, 10 nM | 102 | 92.7 | 76.6
sgRNA knockout: sgXBP1, 100 nM | 104 | 78.2 | 74.3
sgRNA knockout: sgXBP1, 1000 nM | 50.3 | 72.7 | 107
sgRNA knockout: sgXBP1, 10000 nM | 41.4 | 29.5 | 68.9
